PubChem BioAssay AID1259306 | Sanger Institute – 2017

Purpose: 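Kinase-wide siRNA screen for partners of targeted drugs in colorectal cancer cells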 (primary screen)
System: human SNU-C5 colorectal cancer cells
Knock-down reagent: siRNA pool against human genes
Conditions: DMSO vehicle alone, or one anchor drug: BYL719 at 1 µM, cetuximab at 5 µg/ml or trametinib at 10 nM, given 24 h into the assay
Measured: 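Viability versus non-targeting pool averaged across replicates, given as fraction and robust z-score, and synergy scores for BYL719, cetuximab or trametinib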
Direction: robust z-score, knock-down alone and viability, knock-down alone: higher = more viable cells; synergy score with BYL719: higher = stronger synthetic lethality with BYL719; synergy score with cetuximab: higher = stronger synthetic lethality with cetuximab; synergy score with trametinib: higher = stronger synthetic lethality with trametinib
Active means: 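Called essential when the robust z-score for knock-down alone is below -3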
Meaning of the calls: active = essential (knock-down alone); inactive = no change alone
The whole screen tested 794 reagents; this is a random part of them. 11 of all reagents (1.4%) were called active. 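Calls reflect knock-down alone; synergy scores play no part, so knock-downs synergising with a drug can be called no change.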 Entries without a mark were called inactive. No viability above 1 is reported: the scale is capped. No sequences are given here. Not given: the amount of reagent, the time to read-out.

gene symbol | robust z-score, knock-down alone | viability, knock-down alone | synergy score with BYL719 | synergy score with cetuximab | synergy score with trametinib
MATK | 0.854 | 0.981 | 0.247 | 0.0726 | 0.0241
SBK1 | 0.925 | 0.991 | 0.131 | -0.00886 | -0.186
BRSK1 | 0.788 | 0.972 | 0.0262 | 0.00799 | -0.0437
CILK1 | 0.988 | 1 | 0.222 | -0.000168 | 0.113
FGFRL1 | 0.956 | 0.995 | 0.157 | 0.117 | 0.0541
DBF4 | 0.775 | 0.97 | 0.207 | 0.136 | -0.0988
PDGFRA | 0.285 | 0.903 | 0.0432 | 0.0662 | 0.0238
RSKR | -0.422 | 0.806 | 0.023 | 0.0336 | -0.111
CAMK2D | 0.838 | 0.979 | 0.00238 | -0.0208 | -0.169
BMPR1A | 0.989 | 1 | 0.209 | 0 | -0.0414
MAP3K13 | 0.78 | 0.971 | 0.0232 | 0.00819 | -0.0538
CUL1 | 0.834 | 0.979 | 0.183 | 0.111 | 0.0222
BCR | -2.34 | 0.542 | -0.0604 | -0.146 | -0.121
PIP4K2A | -0.359 | 0.814 | -0.0399 | -0.0776 | -0.377
PTK2 | -0.33 | 0.818 | 0.0537 | -0.182 | -0.181
FN3K | -0.906 | 0.739 | -0.155 | -0.194 | -0.113
PKMYT1 | 0.989 | 1 | 0.173 | 0 | -0.022
EXOSC10 | -0.826 | 0.75 | -0.113 | 0.0129 | -0.0514
KRAS | 0.0877 | 0.876 | -0.0453 | 0.129 | -0.0292
INSRR | 0.989 | 1 | 0.258 | 0.0834 | 0.0197
EPHA6 | -2.64 | 0.5 | -0.0402 | 0.149 | 0.0202
DGUOK | 0.989 | 1 | 0.0224 | 0.16 | -0.113
N4BP2 | -0.682 | 0.77 | -0.0946 | -0.155 | -0.288
PANK3 | 0.824 | 0.977 | -0.0228 | 0.16 | -0.0253
HK3 | 0.989 | 1 | 0.118 | 0.0849 | 0.06
SMG1 | -1.59 | 0.645 | 0.022 | -0.0307 | -0.129
RBKS | -0.148 | 0.843 | -0.000569 | 0.0331 | -0.192
RUNX1 | -1.69 | 0.631 | -0.0183 | -0.0427 | -0.122
MAP3K14 | 0.723 | 0.963 | 0.00663 | 0.164 | 0.0602
CERK | -0.564 | 0.786 | -0.13 | -0.214 | -0.00917
CAMK2N1 | -2.16 | 0.566 | 0.0455 | -0.141 | -0.151
MAK | -0.61 | 0.78 | 0.141 | -0.209 | -0.0823
CDKN2C | -0.364 | 0.814 | -0.186 | -0.0282 | -0.155
PRKX | 0.989 | 1 | 0.146 | 0 | -0.0016

Already shown: entries from further up.
gene symbol | robust z-score, knock-down alone | viability, knock-down alone | synergy score with BYL719 | synergy score with cetuximab | synergy score with trametinib
PANK3 | 0.824 | 0.977 | -0.0228 | 0.16 | -0.0253
HK3 | 0.989 | 1 | 0.118 | 0.0849 | 0.06
SMG1 | -1.59 | 0.645 | 0.022 | -0.0307 | -0.129
RBKS | -0.148 | 0.843 | -0.000569 | 0.0331 | -0.192
